Experimental data as given in PubChem BioAssay AID590 (National Center for Advancing Translational Sciences (NCATS), 2007).
“And” between values parts separate entries of the source, which are not always exact repeats. Equal values may be shown once. About 6,500 (11%) of roughly 59,000 compounds were called active. Inconclusive results, whose numbers are uncertain, are shown with a selection of clear calls. No stated cut-off is given here; in the data, active means max dye-equivalent concentration above about 10 nM; inconclusive means mostly about 1.1 nM to 9.6 nM; inactive means weaker than that.

Assay: qHTS Assay for Spectroscopic Profiling in A350 Spectral Region
Conditions: Compound autofluorescence, 340/450 nm, Alexa 350 dye-equivalents; active compounds read high

| Compound | max dye-equivalent concentration |
| --- | --- |
| CCOC(=O)c1cnc(SCC(=O)N2CCN(c3ccccc3)CC2)nc1N | active: 1.8e-08 M |
| Cc1cccc(OCCn2c(NC(=O)c3ccco3)nc3ccccc32)c1 | inconclusive: 2e-09 M |
| S=c1[nH]nc(-c2ccco2)n1-c1cccc2ccccc12 | inconclusive: 5.7e-09 M |
| CN(CC(=O)N1CCCc2c1c(=O)oc1ccc(O)cc21)Cc1ccccc1 | inconclusive: 2.4e-09 M |
| CC(C)c1ccccc1NC(=O)c1ccco1 | inconclusive: 4.7e-09 M |
| CCOC(=O)c1oc2c(CN3CCCCC3C)c(O)ccc2c(=O)c1-c1ccc(OC)c(OC)c1 (centres undefined) | inactive |
| O=C(Cn1nnc2c(cnn2-c2ccccc2)c1=O)NCc1cccs1 | active: 6.7e-08 M |
| CCSc1nnc(NC(=O)CCNS(=O)(=O)c2cc(Br)cnc2N)s1 | active: 1.5e-08 M |
| NCCCCCc1nnc(SCc2cccc(Cl)c2)o1 | inconclusive: 3.5e-09 M |
| Cc1cccn2c(=O)c3cc(C(=O)N4CCc5ccccc54)n(C)c3nc12 | active: 1.1e-07 M |
| COc1cccc(Oc2cnc(N)nc2-c2ccc(OC)cc2O)c1 | active: 5.7e-08 M |
| CCn1cc(C(=O)O)c(=O)c2cc(F)c(N3CCNCC3)cc21 | inconclusive: 2.5e-09 M and inconclusive: 1.4e-09 M |
| O=C(OCC(=O)N1CCCCC1)c1cc2ccccc2cc1O | inconclusive: 3.3e-09 M |
| O=c1cc(-c2ccc(O)cc2)oc2c([C@H]3O[C@@H](CO)[C@@H](O)[C@@H](O)[C@@H]3O)c(O)cc(O)c12 | inconclusive: 2.2e-09 M |
| Cn1nnnc1SCCNCc1cccc2ccccc12 | inconclusive: 1.1e-09 M |
| CC(=O)Nc1cccc(-c2nnc(SCc3ccccc3C#N)n2C)c1 | active: 1.7e-07 M |
| COCC(C)n1c(SCC(=O)NC(=O)Nc2ccc3c(c2)OCCO3)nc2ccccc2c1=O (centres undefined) | inactive |
| CCOC(=O)CC(=O)CSc1nc(C)cc(-c2cccnc2)c1C#N | inconclusive: 3.7e-09 M |
| Cc1nc2n[nH]c(N)c2c2c1COC(C)(C)C2 | inconclusive: 5.6e-09 M |
| CCOC(=O)c1[nH]c2cc3c(cc2c1NC(=O)CN1CC(C)CC(C)C1)OCO3 (centres undefined) | active: 1.4e-08 M |

| Compound | max dye-equivalent concentration |
| --- | --- |
| CCOc1ccccc1NC(=O)CSc1nnc(-c2ccccc2Cl)n1Cc1ccco1 | inactive |
| COC(=O)c1cc(CSc2nnc(NC3CCCCC3)s2)oc1C | inactive |
| c1ccc(-c2nn3c(C4CCCCC4)nnc3s2)cc1 | inconclusive: 1.1e-09 M |
| CCC(C)(C)NC(=O)CN(C(=O)c1snc(C(N)=O)c1N)c1ccc2c(c1)OCCO2 | inconclusive: 4.8e-09 M |
| COC(=O)Cn1c(=O)c2c(nc(Br)n2CC(=O)OC)n(C)c1=O | inconclusive: 6e-09 M |
| O=S(=O)(c1ccc(F)cc1)N1CCN(CC(O)COCc2cccs2)CC1 (centres undefined) | inconclusive: 1.5e-09 M |
| COC(=O)c1ccccc1NC(=O)c1cnn2c(C(F)F)cc(C3CC3)nc12 | active: 1.6e-08 M |
| CCOC(=O)C1CCCN(C(=O)c2ccccc2NC(C)=O)C1 (centres undefined) | inactive |
| NC(=O)c1cc2ccc(O)cc2oc1=Nc1ccccc1 | active: 6.3e-07 M |
| CC1(C)CC(=O)C2=C(C1)OC(N)=C(C#N)C2CCc1ccccc1 (centres undefined) | inconclusive: 3.2e-09 M |
| N#CC[N+]1(Cc2ccccn2)CCCC1 | inactive |
| CC1(C)CC(=O)c2cn3c(nc2C1)nc1ccccc13 | inconclusive: 2.5e-09 M |
| O=C1N=C(N2CCOCC2)S/C1=C1\C(=O)N(Cc2ccccc2)c2ccc(Br)cc21 | inactive |
| Cc1cc(=O)[nH]c2c1c(C)nn2-c1ccccc1 | inactive |
| COc1ccc(CNc2ncncc2-c2ccccc2Cl)c(OC)c1 | inactive |
| COc1ccc(OC)c(N/C(C)=C/C(=O)c2ccc(C)o2)c1 | inconclusive: 1.1e-09 M |
| O=C(CCCn1c(=S)[nH]c2cc3c(cc2c1=O)OCO3)N1CCN(c2ncccn2)CC1 | inconclusive: 3.7e-09 M |
| COC(=O)Nc1c(C)n(C)n(-c2ccccc2)c1=O | inconclusive: 3.1e-09 M |
| CS(=O)(=O)N1CCC[C@@]2(CCN(Cc3ccc(C#N)cc3)C2)C1 | inactive |
| CCCN(CCC)Cc1c(C(=O)OCC)nnn1-c1nonc1N | inconclusive: 7.9e-09 M |

4 records drawn at random from the list so far:

| Compound | max dye-equivalent concentration |
| --- | --- |
| CCCN(CCC)Cc1c(C(=O)OCC)nnn1-c1nonc1N | inconclusive: 7.9e-09 M |
| COC(=O)Nc1c(C)n(C)n(-c2ccccc2)c1=O | inconclusive: 3.1e-09 M |
| N#CC[N+]1(Cc2ccccn2)CCCC1 | inactive |
| COc1ccc(CNc2ncncc2-c2ccccc2Cl)c(OC)c1 | inactive |

Following part:

| Compound | max dye-equivalent concentration |
| --- | --- |
| c1nc2sc3c(c2c2nnnn12)CCCC3 | inactive |
| COc1ccc(C2Nc3ccccc3C(=O)N2Cc2ccco2)cc1CN1C(=O)c2ccccc2C1=O (centres undefined) | inconclusive: 5.8e-09 M |
| Cc1cc(C)n2cc(CSc3nnnn3-c3ccccc3C)nc2n1 | inconclusive: 2.9e-09 M |
| c1ccc(-c2ccc(-c3ccc(C4=NCCN4)cc3)o2)cc1 | active: 5.2e-07 M |
| Cc1ccc(Nc2nnc(SCc3cc(=O)n4ccsc4n3)s2)c(C)c1 | inconclusive: 2.2e-09 M |
| CO/C=C/C#CC1(O)CCN(C)CC1 | inconclusive: 1.9e-09 M |
| COCCn1c(=O)c(-c2ccc(F)cc2)nc2cnc(N(C)C)nc21 | active: 1.4e-08 M |
| Cc1oc(C(=O)Nc2ccc(O)cc2)cc1COc1ccccc1 | inactive |
| O=C(NC(Cc1ccccc1)C(=O)N1CCN(c2ccccn2)CC1)c1ccco1 (centres undefined) | inactive |
| N#C/C(=C1/CCCCCN1)c1nc2ccccc2[nH]1 | inactive |
| COc1cccc(-c2nccc(-n3ccnc3)n2)c1 | inactive |
| Clc1ccc(-c2nnc(NC3=NCCCCC3)o2)cc1 | inactive |
| O=c1cc(CO)oc(CN2CCN(c3ccccc3F)CC2)c1O | inconclusive: 1.5e-09 M |
| CCOC(=O)c1sc2nc(-c3ccco3)c3c(c2c1N)CC(C)(C)OC3 | inconclusive: 2.6e-09 M |
| O=c1c2c3c(sc2nc2n1CCCS2)CCCC3 | active: 1.4e-08 M |
| Oc1ccccc1C1=Nc2ncnn2C(c2ccc(F)cc2)C1 (centres undefined) | inconclusive: 2.9e-09 M |
| Cc1cc(NC(=O)NC2(C(F)(F)F)Oc3ccc(Cl)cc3O2)no1 (centres undefined) | inconclusive: 1.1e-09 M |
| CCC(c1nnnn1C(C)(C)CC)N(CCCO)Cc1cc2cccc(C)c2[nH]c1=O (centres undefined) | inconclusive: 8.5e-09 M |
| CCN(Cc1ccccc1)C(c1cc2cc(C)cc(C)c2[nH]c1=O)c1nnnn1CCOC (centres undefined) | inconclusive: 6.6e-09 M |
